# In US8546322B2, “Inhibitors of intracellular urokinase plasminogen activator and methods of use thereof” (The Regents of the University of California, priority 2007, dated 2013):
# At least one structure is not confirmed: it was looked up by name or label, or the drawing left a doubt. Where a SMILES comes first, the peptide text is derived from it. The star is where a group is joined. AMC = Cc1cc(=O)oc2cc(N*)ccc12; Bz = O=C(c1ccccc1)*; βAla = NCCC(=O)O
# Molecular target: T1, secreted uPA (Homo sapiens, UniProt P00749)
# T1 construct: Infusing the compound into glioma xenograft using microdialysis threaded through stereotaxic needle track into intracerebral glioma xenograft; from tissue; host or cells: intracerebral glioma xenograft (extracellular fluid) in rat
# Assay: Extracellular cleavage in glioma xenograft by microdialysis
# Assay type: in vivo
# Details: microdialysis of intracerebral glioma xenograft
smiles,measurement,value
Cc1cc(=O)oc2cc(NC(=O)[C@H](CCCNC(=N)N)NC(=O)CNC(=O)CCNC(=O)c3ccccc3)ccc12 [Bz-β-Ala-Gly-Arg-AMC] ({Bz-βAla}-Gly-Arg-{AMC}),ratio of extracellular cleavage of prodrug to intact prodrug generated by secreted uPA,< 1:10^4
